Experimental data reported in patent publication US20100233095A1.
No constants are given. Whether binding was seen depends on the method and setting. Some binding calls cover weakened binding; strength is not graded here.

Protein sequences, listed by entry. Tags and fused reporters are not part of them. Residues count along the entry.
UniProt P05067, residues 672-713: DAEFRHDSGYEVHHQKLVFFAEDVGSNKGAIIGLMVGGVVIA

Target: soluble Aβ oligomers (UniProt P05067)
Test: pyrene fluorescence, as for FIG. 12 (data not shown)

KLVFFAEDAAAAKHAIIELMK (pyrene at each terminus (di-pyrene labeled); C-terminal amide) [Peptide 38 (SEQ ID NO:3)] was tested, and the binding was “binds”.
